The results in this text go back to PubChem BioAssay AID1347423 (Functional Genomics Laboratory (NCATS/FGL), 2020).

Out of some 52,000 sequences screened, about 210 (0.4%) were called active.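 The calls were made as follows: active = gene whose silencing raises cell survival under the drug, median off-target-corrected z-score across its silencing RNAs 2 or more; inactive = the rest.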 The list shows a part of the results.

The test in a line: Resistance to Poly (ADP-Ribose) Polymerase inhibitor: Gene Identification via Genome-wide siRNA Screen. The settings on record: mouse BRCA2 R2336H ES cells, olaparib, CellTiter-Glo viability; hits give high values. The gist of the method: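 Mouse BRCA2 R2336H ES cells were reverse-transfected with siRNA (20 nM final), treated at 48 h with 500 nM olaparib, and read by CellTiter-Glo after 72 h. Scores: MAD-based z per siRNA, median per gene, seed off-target correction.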
A general note: In ATP-based viability assays light output follows the ATP content of the culture.
In the case of CCGUGUCAUCUUGAAAAUUTT against Mtrr, the z-score is inactive: -1.03.

GAAAAGUGCACCAUCAGCCTT against Ly6g5b: the z-score is inactive: -0.493.

Take CGGUGAUCAAUCAUUGUAATT against Tas2r113: the z-score is inactive: 0.579.

“GAUGCUCUCUGCUCUGAGATT against C030016D13Rik”: the z-score was inactive: -0.831.

Take GGUGUCCAGCAUUUACAUCTT against Agtr2: the z-score is inactive: -0.366.

As for CGACCACAGAUAUAAAUUUTT against Tbx5, the z-score is inactive: 0.988.

Turning to GGAUGCCUGAGUGCUACAUTT against Lsm4, the z-score is inactive: -0.892.

Take “CCUUGAAUAACUGUAUGGUTT against 4833442J19Rik”: the z-score was inactive: -0.659.

As for CGACAAUCGACAAUCGUGCTT against Acta1, the z-score is inactive: -0.455.

On to GGAGACACCAGACCAACAATT against LOC432825, for which the z-score is inactive: -0.634.

As to CGUACAUGUCACCUGCUAATT against Them2, the z-score was inactive: -0.267.

Consider GGAUAACUAGCAUUUCCCATT against Ninj2, for which the z-score was inactive: 0.806.

For the sequence GACGAUUCUCUGUUGGUGUTT against Hcrt, the z-score was inactive: -0.437.

With GGUCGAUGGUGCUCUGAAGTT against Spry3, the z-score is inactive: -0.264.

Regarding GGGAUGUCUUGGAACAUGCTT against Gm191, the z-score was inactive: -1.09.

Turning to GGUGUAAGGCUGUUGUAUUTT against Cmkor1, the z-score is inactive: 1.63.

Regarding GCUCUUCUGUCCAAAGAUGTT against Pim3, the z-score was inactive: -0.132.

Regarding GGAUCUUCAAGGUUAACCATT against BC006705, the z-score was inactive: 0.373.

Regarding GGAGAUACAAAUUUAAGAGTT against Ttrap, the z-score was inactive: -0.476.

Consider GAUACUUGGCUCCUAGAAGTT against Olfr803, for which the z-score is inactive: -1.11.

Turning to GGCUGCUACUGACAGAUUATT against Fgd6, the z-score is inactive: -0.0207.

Turning to “GGACUUUCGAAGUAAGAUGTT against 5730437N04Rik”, the z-score was inactive: 1.61.

GCUGUGGACGGACUCUAUATT against Dhodh: the z-score is inactive: 0.538.

Regarding GUGGUUAUCCUGUUUUUUGTT against Olfr1273, the z-score is inactive: 0.488.

For the sequence GGGAAGUUUUAUGGUUGAUTT against Rad51c, the z-score is inactive: -0.0808.

With GGAGAGUGGCAUUACCUAUTT against Mrg2, the z-score is inactive: 0.902.

Take GGAGGCAUAUCUAGGCACUTT against Cdkn1a: the z-score is inactive: -0.0739.

For the sequence CCUUUGUCCGGUCCAUUCCTT against Hk1, the z-score is inactive: -0.331.

For “GGAGGAGAAAAUCAAACCATT against 2810457M08Rik”, the z-score was inactive: -0.47.

On to GGGACUCUAAAAACAAUGATT against Zfp99, for which the z-score was inactive: -1.24.

As to “CCUAACCAAGAUCCAAUCUTT against 6330549D23Rik”, the z-score is inactive: -1.31.

Regarding GGUUGCCAAAUACUGCUGUTT against Ppm1a, the z-score was inactive: 2.31.

With “GCAUUGAUGUGGUUAUAACTT against 1190005P17Rik”, the z-score was inactive: 0.496.

On to GGCUGUCCUGGUCCAAUAUTT against Slc35a2, for which the z-score is inactive: -0.343.

Take CGAAGGGCAACGGUUCUCATT against Akr1b7: the z-score was inactive: 1.53.

As to GGCACAAGACCUUCAGCACTT against Olfr566, the z-score was inactive: -0.647.

In the case of GGCUUCAUGGUUCCCUGUATT against Rhox1, the z-score is inactive: -2.39.

Take CCAUCAACCAAUCAUACAGTT against Ddx26: the z-score was inactive: 0.816.

Consider GGUUCUAUGACAGAAAUGATT against Rngtt, for which the z-score was inactive: 1.2.

Regarding “CGUUUUUCUUAUGAUCAGGTT against B930093C12Rik”, the z-score is inactive: -0.248.

As for “GCAUGUUCGCACGUGUCAATT against 5330439B14Rik”, the z-score was inactive: 0.469.

For “GGCCGUGUCGUACACUAUGTT against 6430598A04Rik”, the z-score was inactive: -0.118.

For the sequence GCCUUUCUCAUUCAGUCUCTT against V1rb10, the z-score is inactive: 0.376.

Consider GGAUGUGGAGAACAGCUUCTT against Ppt1, for which the z-score is inactive: -1.82.

Turning to GGCCCAACGACAUUUAUGUTT against Pop7, the z-score was inactive: -0.271.

Consider GCUAGCUGUAAAACAUUGCTT against Nppc, for which the z-score was inactive: -0.901.

On to GGGCUGGAUUUUGAUGAUGTT against Arnt, for which the z-score is inactive: 2.82.

As to CGACCUCAGACUGAAGGACTT against Msr1, the z-score was inactive: -1.62.

For CCUGGCUUACAGUACAUGCTT against Adarb1, the z-score was inactive: -0.231.

Turning to GGCUCUGAUGUUUCUAAAATT against Hdac10, the z-score is inactive: 1.07.

As for GGAAACAGCACCUUGUUGATT against Olfr205, the z-score was inactive: -0.867.

GGUCUGUUUGACAUUAUACTT against Pdha1: the z-score was inactive: 0.684.

For the sequence “GGUUGUUGUGACCUUCCUGTT against 2310022M17Rik”, the z-score is inactive: 0.125.

As to GGAAAUCCUGAAGUUUCCUTT against Gprk5, the z-score was inactive: 0.105.

Regarding GGAGGUACAGAUAGAGACUTT against Tcl1b4, the z-score was inactive: 1.7.

With GACAUGGACAUCUACACUATT against H2-Q8, the z-score was inactive: -0.67.

In the case of GCCUGAAAUGAAAGUUGCUTT against Olfr1136, the z-score was inactive: 0.125.

Consider GGGUCAAGUUUACAGAUGATT against Luc7l, for which the z-score is inactive: 0.715.

Take CCAAACGAGGACUAAAAAUTT against Xcl1: the z-score was inactive: 1.06.

Regarding GGUCAAAAGACAAUGUGGATT against Git2, the z-score was inactive: 0.0985.

GCUCUCCAGCUAAAUGACCTT against Lsm3: the z-score was inactive: 0.748.

CAUCGUUGGAGCUAUAGAUTT against Olfr1098: the z-score is inactive: -0.843.

With GGCUCAUCUCCUAUGACCUTT against Lipe, the z-score was inactive: 1.44.

With “GGCUGAGGUGGUUACAUUATT against 2010305A19Rik”, the z-score is inactive: 0.0832.

As for GGAGUGUGUGCUUUUAAAATT against Rabggta, the z-score is inactive: 0.378.

Turning to GCGUGUUCUAUCCUAUUUCTT against Sqle, the z-score was inactive: 1.01.

For the sequence GGGACUUCUCCCAAUGUUGTT against Ucp2, the z-score was inactive: 1.46.
